In PubChem BioAssay AID2685 (National Center for Advancing Translational Sciences (NCATS), 2010):
Hit rate of the full screen: of about 320,000 compounds, about 2,100 (0.66%) were called active. Inconclusive means that the source gave no clear call. Such entries were picked first, then a sample of the others. Calls follow the shape of the dose curve; as a rule, active = well fitted inhibition curve with a large enough effect in the signal ratio, with a control signal flat (not every such curve was filed as active); inconclusive = small, poorly fitted or top-dose-only effect, or effect the other way, or a change in a side signal; inactive = flat fitted curve, though single readings scatter; the % refers to the signal ratio. Potencies beside an inconclusive call are fits to weak or partial responses and may not hold up.
% is scaled to controls: 0 for no effect and ±100 for the full control effect; potency is read from the fitted curve at half-maximal effect.

Assay: qHTS Assay for Lipid Storage Modulators in Drosophila S3 Cells
Conditions: BODIPY lipid droplet fluorescence, 18-24 h, cells fed with added oleic acid; lipid storage change, negative = inhibition: at 46.1 µM (top of the series) unless noted
Procedure, shortened: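 Drosophila S3 cells got compounds at several concentrations plus oleic acid (400 uM solution). Laser-scanning cytometry with 488 nm excitation read lipid droplets at 500-530 nm and cells at 575-640 nm. Percent activity was relative to 20 uM Triacsin C.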
For `Cc1cccc2nc(CSc3nc4ccccc4o3)cn12`, the lipid storage change, negative = inhibition was inconclusive: 18.8%.
In the case of `CCN(CC)c1ccc(NS(=O)(=O)c2cn(C)c(=O)n(C)c2=O)c(C)c1`, the lipid storage change, negative = inhibition is reported as inconclusive: -45.8%.
For `CCP(=O)(c1ccccc1)C(C)(C)O` (centres undefined), the Potency was inconclusive: 16.4 µM [cytotoxic, single point].
For `COc1ccc(O)c(CN2CCCC(N3CCc4ccccc4C3)C2)c1` (centres undefined), the Potency was inconclusive: 29.1 µM [activator, single point].
For `COc1ccccc1CNC(=O)[C@@H]1CCCN1S(=O)(=O)c1ccc(C)cc1`, the lipid storage change, negative = inhibition was inconclusive: 34.2%.
For `COCc1cc(Sc2c(Cl)cccc2Cl)nc(-c2ccccc2)n1`, the lipid storage change, negative = inhibition was inconclusive: -71.5%.
In the case of `Cc1ccc(-c2noc(CN(C(=O)c3cccc(Br)c3)C(C)C)n2)cc1`, the lipid storage change, negative = inhibition is reported as inconclusive: 7.02%.
With `CC(C)Oc1ccc(C(CC(=O)O)NC(=O)Cc2ccc(Cl)cc2)cc1` (centres undefined) the Potency was inconclusive: 7.31 µM [activator, partial curve].
For `NC(=O)c1nc(C(=O)N2CCN(c3ccccc3)CC2)c2ccccc2n1`, the lipid storage change, negative = inhibition was inconclusive: 5.14%.
For `CC(C)C(=O)Nc1ccc(Cl)cc1-c1nc2ccccc2[nH]c1=O`, the Potency was inconclusive: 0.164 µM [falling, full curve, poor fit].
For `Cn1nnnc1SCC(=O)c1c(N)n(C2CC2)c(=O)[nH]c1=O`, the lipid storage change, negative = inhibition was inconclusive: 4.06%.
For `Cc1ccc(-c2nc(-c3ccncc3)no2)cc1C`, the lipid storage change, negative = inhibition was inconclusive: -34.9%.
For `Clc1ccc(Cc2nc(-c3cccnc3)no2)cc1`, the Potency was inconclusive: 0.0731 µM [activator, full curve, poor fit].
For `CC1=CC(C)(C)Nc2ccc(OC(=O)C(Cc3ccccc3)N3C(=O)c4ccccc4C3=O)cc21` (centres undefined), the lipid storage change, negative = inhibition was inconclusive: 24.7%.
With `Cc1ccc(S(=O)(=O)N(C)c2ccc(OCC(=O)N3CCCCC3)cc2)cc1` the lipid storage change, negative = inhibition was inconclusive: -2.12%.
For `O=C(NCc1cccnc1)NC1CCCN1S(=O)(=O)c1ccc(Cl)cc1` (centres undefined), the lipid storage change, negative = inhibition was inconclusive: 26.2%.
With `Cc1nn(C)c(C(=O)N/N=C/c2ccncc2)c1Cl` the lipid storage change, negative = inhibition was inconclusive: -19.2%.
In the case of `COc1ccc(NC(=O)CSc2ccc3nnc(CCNC(=O)c4ccccc4)n3n2)cc1`, the Potency is reported as inconclusive: 29.1 µM [activator, single point].
In the case of `Cc1cccc(OCC(=O)NNC(=O)c2ccc([N+](=O)[O-])cc2)c1`, the lipid storage change, negative = inhibition is reported as inconclusive: 0.99%.
In the case of `C=CCNC(=O)/C(C#N)=C/c1c(N2CCCCCC2)nc2ccccn2c1=O`, the Potency is reported as inconclusive: 29.1 µM [falling, single point].
With `CCOC(=O)c1ccc(-c2ccc(/C=N/NC(=O)Cc3nnc(N)s3)o2)cc1` the “lipid storage change, negative = inhibition” value was inactive: 4.22%.
For `O=C(NNC(=S)NCc1ccccc1)c1ccc(Br)cc1`, the lipid storage change, negative = inhibition was inconclusive: 349%.
With `COc1ccccc1C(C)NC(=O)c1cc(S(=O)(=O)N2CCCCC2)ccc1C` (centres undefined) the Potency was inconclusive: 0.82 µM [falling, full curve, poor fit].
In the case of `CCOC(=O)c1c(C)[nH]c(NC(=O)N2CCOCC2)c1C`, the lipid storage change, negative = inhibition is reported as inconclusive: 42.3%.
In the case of `Cc1nc2ccc(S(=O)(=O)NCC(=O)N3CCc4ccccc43)cc2s1`, the lipid storage change, negative = inhibition is reported as inconclusive: 5.98%.
In the case of `CC(=O)Nc1ccc2c(c1)CCC2=O`, the lipid storage change, negative = inhibition is reported as inconclusive: -35.9%.
With `CC(C)(C)c1ccc2c(c1)OCC(C(=O)O)O2` (centres undefined) the Potency was inconclusive: 0.13 µM [falling, full curve, poor fit].
With `Cc1nc2cc(N3CCCCC3)c(NC(=O)c3cccnc3)cc2c(=O)n1Cc1ccccc1` the Potency was inconclusive: 0.58 µM [activator, partial curve, poor fit].
For `O=C(O)C/C(=C\c1ccc(Cl)cc1)c1nc2ccccc2o1`, the lipid storage change, negative = inhibition was inconclusive: -20.3% [at 9.22 µM].
With `C/C(=N\NS(=O)(=O)c1ccc(C)c([N+](=O)[O-])c1)c1cccs1` the lipid storage change, negative = inhibition was inconclusive: 11.1%.
In the case of `CC(C)(C)NS(=O)(=O)c1ccc2[nH]c3c(c2c1)CCCCC3`, the lipid storage change, negative = inhibition is reported as inconclusive: 12.4%.
For `COC(=O)c1[nH]c2cccc(OC)c2c1NC(=O)CCN1CCSCC1`, the lipid storage change, negative = inhibition was inconclusive: 3.8%.
With `COc1cc2ccccc2cc1C(=O)N(CCN(C)C)c1nc2ccc(Br)cc2s1` the Potency was inconclusive: 29.1 µM [activator, partial curve].
For `O=C(NCCCN1CCN(c2ccc(F)cc2)CC1)C1CCCN(c2ncnc3c2nc2n3CCCCC2)C1` (centres undefined), the Potency was inconclusive: 0.0651 µM [activator, full curve, poor fit].
With `COCCNC(=O)CSc1nnc(-c2ccccc2F)n1Cc1ccccc1` the lipid storage change, negative = inhibition was inconclusive: 119%.
With `O=C(Nc1c2c(nn1-c1cccc(Cl)c1)CS(=O)(=O)C2)C1CC1` the lipid storage change, negative = inhibition was inconclusive: 34.4%.
In the case of `O=C(CN1C(=O)NC2(CCCC2)C1=O)OCCOc1ccc(Cl)cc1Cl`, the “outcome” value is reported as “inactive [at 46.1 µM]”.
With `CCN(CC)C(=O)C1=C(C)Nc2ncnn2C1c1cccnc1` (centres undefined) the lipid storage change, negative = inhibition was inconclusive: -12.4%.
For `C=CCSc1nnc(CNC(=O)c2ccccc2C)n1C(C)C`, the lipid storage change, negative = inhibition was inconclusive: 18.9%.
In the case of `Cc1cc(C(=O)N/N=C/c2cc(N=Nc3ccccc3)ccc2O)n[nH]1`, the Potency is reported as inconclusive: 32.6 µM [falling, single point].
With `CCN(CC)c1ccc(CNc2nc3ccccc3n2C)cc1` the lipid storage change, negative = inhibition was inconclusive: 16.3%.
For `CCOc1ccc(CCNC(=O)c2cnccn2)cc1OCC`, the Potency was inconclusive: 4.61 µM [falling, partial curve].
In the case of `O=C(C1CCN(S(=O)(=O)c2cccc3cccnc23)CC1)N1CCCC1`, the lipid storage change, negative = inhibition is reported as inconclusive: 57.4% [activator].
With `CC(=O)Nc1ccc(NC(=O)Nc2cccc3ccccc23)cc1` the lipid storage change, negative = inhibition was inconclusive: 39.7%.
For `CN(C)CCN(Cc1ccco1)S(=O)(=O)c1ccc(-c2ccc(=O)[nH]n2)s1`, the lipid storage change, negative = inhibition was inconclusive: -16.6%.
For `CCCNC(=O)c1cccc(COCC(F)(F)C(F)F)c1`, the lipid storage change, negative = inhibition was inconclusive: 18.5%.
With `Cc1cc(N2CCOCC2)n2cc(-c3ccccc3)nc2n1` the lipid storage change, negative = inhibition was inconclusive: -3.05%.
With `CC1CCCC(NC(=O)CN2C(=O)c3cccnc3Oc3ccc(Cl)cc32)C1C` (centres undefined) the Potency was inconclusive: 29.1 µM [falling, single point].
With `CCC(=O)NC1=C(Cl)C(=O)C(NC(=O)CC)=C(Cl)C1=O` the Potency was inconclusive: 25.9 µM [falling, single point].
